No constants are given. Whether binding was seen depends on the method and setting. Some entries that bind do so weakly or less than the wild type. Tags and fused reporters may be left off the sequences shown.
B1: testis-expressed gene 14 (TEX14), full-length mouse, yeast two-hybrid fusion (protein, UniProt Q7M6U3 1-1450)
chain: MSRGAPFPVPCPVLLGTFTDDSLEAQLHEYAKQGNCVKLKKILKKGVCVDAVNTQGQSALFVAALLGHVKLVDVLVDYGSDPNHRCFDGSTPVHAAAFSGNQWILSKLLTAGGDLRLHDEKGRNPQAWALTAGKDRSTQMVEFMQRCTSHMKAIIQGFSYDLLKKIDSPQRLIGSPPWFGSLIQGSPNSSPNRQLKPGIISAQNIYSFGFGKFYLTSGMQLTYPGSLPVIGEKEVVQADDEPTFSFFSGPYMVMTNLVWNRSRVTVKELNLPTRPHCSRLRLADLLIAEQEHSSNLRHPNLLQLMAVCLSRDLEKIRLVYERITVGTLFSVLHERRSQFPVLHMEVIVHLLLQVADALIYLHSRGFIHRSLSSYAVHIVSAGEARLTNLEYLTESQDSGAHRNVTRMPLPTQLYNWAAPEVVLQKAATVKSDIYSFSVIIQEILTDSIPWNGLDGSLVKETIALGNYLEADVRLPEPYYDIVKSGIHAKQKNRTMNLQDIRYILKNDLKEFIGAQKTQPTESPRGQSYEPHPDVNICLGLTSEYQKDPPDLDIKELKEMGSQPHSPTDHSFLTVKPTLAPQTLDSSLSAQKPDNANVPSPPAACLAEEVRSPTASQDSLCSFEINEIYSGCLTLGTDKEEECLGTAASPEGDRPNQGDELPSLEEELDKMERELHCFCEEDKSISEVDTDLLFEDDDWQSDSLGSLNLPEPTREAKGKTSSWSKTDEYVSKCVLNLKISQVMMQQSAEWLRKLEQEVEELEWAQKELDSQCSSLRDASLKFANAKFQPAVGPPSLAYLPPVMQLPGLKQPENGGTWLTLARSPGNEREFQEGHFSKKPEKLSACGWKPFTQVSEESRGDCSELNNQLPTLRGPGKQSTGEQLPSTQEARESLEKNTNQNSRSMASVSSEIYATKSRNNEDNGEAHLKWRLAVKEMAEKAVSGQLLLPPWNPQSSAPFESKVENESTPLPRPPIRGPESTEWQHILEYQRENDEPKGNTKFGKMDNSDCDKNKHSRWTGLQRFTGIRYPFFRNHEQPEQNEASQASCDTSVGTEKFYSTSSPIGDDFERFQDSFAQRQGYVEENFQIREIFEKNAEILTKPQFQAIQCAEDKQDETLGETPKELKEKNTSLTDIQDLSSITYDQDGYFKETSYKTPKLKHAPTSASTPLSPESISSAASHYEDCLENTTFHVKRGSTFCWNGQEAMRTLSAKFTTVRERAKSLESLLASSKSLPAKLTDSKRLCMLSETGSSNVSAAFVTSTHATKRKSLPRELAEATSQQHLDELPPPAQELLDEIEQLKQQQVSSLASHENTARDLSVTNKDKKHLEEQETNSSKDSSFLSSREIQDLEDTERAHSSLDEDLERFLQSPEENTALLDPTKGSTREKKNKDQDVVEQKRKKKESIKPERRESDSSLGTLEEDELKPCFWKRLGWSEPSRIIVLDQSDLSD
B2: mitotic kinesis-like protein 1 (MKLP1), full-length mouse, yeast two-hybrid fusion (protein, UniProt E9Q5G3 1-953)
chain: MKSAKAKTVRKPVIKKGSQTNLKDPVGVYCRVRPLSFPDQECCVEVINSTTLQLHTPEGYRLNRNGDYKETQYSFKRVFGTHTTQKELFDVVANPLVDDLIHGKNGLLFTYGVTGSGKTYTMTGSPGSGGLLPRCLNMIFNSIGSFQAKRYVFKSNDRNSMEIQCEVDALLERQKREALPIPKTPSSKRQADPEFADMINVQEFCKAEEVDEDSVYGVFVSYIEIYNNYIYDLLEEVQFDPIKPKLPQSKTLREDKNHNMYVAGCTEVEVKSTEEAFEVFWRGQKKRRIANTHLNRESSRSHSVFSIKLVQAPLDADGDNVLQEKEQITISQLSLVDLAGSERTNRTKAEGNRLREAGNINQSLMTLRTCMEVLRENQTYGTNKMVPYRDSKLTHLFKNYFDGEGKVRMIVCVNPKAEDYEESLQVMRFAEVTQEVEVARPVDKVICGLTPGRRYRNLPRGGPVGDEPLVPEVILQSFPPLPPCKLLDINDEETLPKLADTLEKRHHLRQLMTEDLNKKCLAFKALLKEFDNSLSNKENYVQEKLNEREKVISGQKLEIERLEKKNKTLEYKIEILEKTTTIYEEDKRNLQQELESQNQKLQRQFSDKRRLEARLQGMVTETSMKWQKECERRVAATQLEMQNKLWVKDEKLKQLKAIVTEPKPEKPERPSRERDREKIIPRSVSPSPLPLSSNNIAQISNGQQLMSQPQLHRRSNSCSSISVASCISEWEQKLSPFSTPVNVTSLARHRQQEPGQSKTCIVSDRRRGMCWTEGREMVPTFSSEIGVEEDHCRRNTPIPVRHRRSRSAGSRWVDHKPASNVQTETVMQPHVPHAITVSVANEKALAKCEKYMLTHQELASDGEIQTKVIKGDVYKTRGGGQSVQFTDIETLKQELPTGSRKRRSSTLAPAQPDGTESEWTDVETRCSVAVEMRAGSQLGPGYQHHAQPKRKKP
B3: centrosomal protein 55 kDa (CEP55), full-length mouse, yeast two-hybrid fusion (protein, UniProt Q8BT07 1-462)
chain: MSSRSPKDLIKSKWGSRPSSSKSDTALEKFKGEIAAFKTSLDEITSGKGKMAEKGRSRLLEKIQVLEAEREKNVYYLLEKDKEIQRLKDHLRSRYSSSSLFEQLEEKTKECEKKQQLLESLSKETDVLKNQLSATTKRLSELESKASTLHLSQSMPANCFNSSMNSIHEKEMQLKDALEKNQQWLVYDQQREAYVKGLLAKIFELEKRTETAAASLTQQMKKIESEGYLQVEKQKYDHLLENAKKDLEVERQAVTQLRLELDEFRRKYEEARKEVEDLNQLLSSQRKADIQHLEEDKQKTERIQKLREESSIFKGKLEEERKRSEELLSQVRILYDSLLKHQEEQARVALLEQQMQACTLDFENEKLDRQNMQHQLYVILKELRKAKSQITQLESLKQLHGFTITEQPFPLQREPESRVKATSPKSPSAALNDSLVECPKCSVQYPATEHRDLLVHVEYCMK

Biological target: T1, testis-expressed gene 14 (TEX14), full-length mouse, yeast two-hybrid fusion (mouse) (UniProt Q7M6U3)
T1 sequence: B1 chain
Assay: two-hybrid; yeast, Matchmaker Two-Hybrid System 3 (Clontech), GAL4 pGBKT7 bait and pGADT7 prey vectors, full-length mouse proteins; some interactions also examined with an oxygen-biosensor assay of yeast growth in selective medium

Binder | binding
B1 | binds
B2 | binds
B3 | binds

From paper PMC3045441
